# US7056508
# Results are given in words; binding and its absence hold for the method and conditions named. For part of these data: Binding seen in cells or lysates may run through a third protein. Some results given as binding are weak or reduced against the parent protein; the word gives no strength.
# T1: 97 kDa β subunit of human RPTPκ (MCP7) (human) (UniProt Q15262)
# T1 sequence: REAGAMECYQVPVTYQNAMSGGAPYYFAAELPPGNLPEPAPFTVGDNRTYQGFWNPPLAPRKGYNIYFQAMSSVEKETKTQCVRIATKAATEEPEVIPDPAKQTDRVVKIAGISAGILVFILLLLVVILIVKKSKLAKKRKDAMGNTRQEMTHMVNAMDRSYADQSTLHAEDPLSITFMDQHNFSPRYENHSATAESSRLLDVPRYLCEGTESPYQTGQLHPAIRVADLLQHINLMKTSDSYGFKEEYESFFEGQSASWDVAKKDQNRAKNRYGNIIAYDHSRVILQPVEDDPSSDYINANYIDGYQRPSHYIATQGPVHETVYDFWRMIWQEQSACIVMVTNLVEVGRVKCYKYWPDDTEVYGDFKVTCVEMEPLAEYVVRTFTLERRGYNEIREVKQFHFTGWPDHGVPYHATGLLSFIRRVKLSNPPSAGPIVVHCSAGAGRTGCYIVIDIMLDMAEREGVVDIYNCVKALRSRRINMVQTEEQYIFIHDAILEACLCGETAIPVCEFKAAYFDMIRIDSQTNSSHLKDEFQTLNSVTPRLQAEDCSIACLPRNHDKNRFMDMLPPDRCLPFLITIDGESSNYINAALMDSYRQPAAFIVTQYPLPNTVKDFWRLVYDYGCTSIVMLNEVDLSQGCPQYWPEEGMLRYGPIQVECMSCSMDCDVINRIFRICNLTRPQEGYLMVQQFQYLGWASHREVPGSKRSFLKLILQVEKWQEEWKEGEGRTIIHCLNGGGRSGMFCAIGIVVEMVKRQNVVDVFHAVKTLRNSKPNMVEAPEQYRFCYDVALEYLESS
# T2: 100 kDa C-terminal cleavage product of murine RPTPκ (mouse) (UniProt P35822)
# T2 sequence: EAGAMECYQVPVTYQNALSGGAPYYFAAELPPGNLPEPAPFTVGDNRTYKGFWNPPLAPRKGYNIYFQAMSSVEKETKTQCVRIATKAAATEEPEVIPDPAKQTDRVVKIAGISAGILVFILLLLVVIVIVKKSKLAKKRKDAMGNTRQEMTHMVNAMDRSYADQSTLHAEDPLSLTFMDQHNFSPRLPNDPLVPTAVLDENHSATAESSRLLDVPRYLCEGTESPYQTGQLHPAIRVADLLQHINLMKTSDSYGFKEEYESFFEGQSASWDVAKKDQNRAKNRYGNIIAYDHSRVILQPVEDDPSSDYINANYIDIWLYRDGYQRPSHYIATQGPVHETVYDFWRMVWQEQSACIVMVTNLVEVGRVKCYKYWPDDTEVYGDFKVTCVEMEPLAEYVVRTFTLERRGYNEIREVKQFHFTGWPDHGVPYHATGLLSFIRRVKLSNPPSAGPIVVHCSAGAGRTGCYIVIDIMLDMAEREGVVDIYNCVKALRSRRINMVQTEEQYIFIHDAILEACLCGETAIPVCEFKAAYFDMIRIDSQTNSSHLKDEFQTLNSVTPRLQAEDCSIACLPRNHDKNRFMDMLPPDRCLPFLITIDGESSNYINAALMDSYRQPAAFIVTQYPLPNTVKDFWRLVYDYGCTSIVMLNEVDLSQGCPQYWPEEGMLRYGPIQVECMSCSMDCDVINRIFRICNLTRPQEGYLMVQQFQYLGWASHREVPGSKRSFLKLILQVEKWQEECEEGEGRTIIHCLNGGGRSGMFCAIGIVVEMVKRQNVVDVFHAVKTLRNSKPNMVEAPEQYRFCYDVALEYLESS
# B1: 116 kDa α subunit of human RPTPκ (MCP7) (receptor)
# chain: PWPLLGSAQGQFSAGGCTFDDGPGACDYHQDLYDDFEWVHVSAQEPHYLPPEMPQGSYMIVDSSDHDPGEKARLQLPTMKENDTHCIDFSYLLYSQKGLNPGTLNILVRVNKGPLANPIWNVTGFTGRDWLRAELAVSTFWPNEYQVIFEAEVSGGRSGYIAIDDIQVLSYPCDKSPHFLRLGDVEVNAGQNATFQCIATGRDAVHNKLWLQRRNGEDIPVAQTKNINHRRFAASFRLQEVTKTDQDLYRCVTQSERGSGVSNFAQLIVREPPRPIAPPQLLGVGPTYLLIQLNANSIIGDGPIILKEVEYRMTSGSWTETHAVNAPTYKLWHLDPDTEYEIRVLLTRPGEGGTGLPGPPLITRTKCAEPMRTPKTLKIAEIQARRIAVDWESLGYNITRCHTFNVTICYHYFRGHNESKADCLDMDPKAPQHVVNHLPPYTNVSLKMILTNPEGRKESEETIIQTDEDVPGPVPVKSLQGTSFENKIFLNWKEPLDPNGIITQYEISYSSIRSFDPAVPVAGPPQTVSNLWNSTHHVFMHLHPGTTYQFFIRASTVKGFGPATAINVTTNISAPTLPDYEGVDASLNETATTITVLLRPAQAKGAPISAYQIVVEELHP
# B2: truncated, catalytically inactive deletion mutant of murine RPTPκ lacking most of the intracellular (PTPase) domain (receptor)
# chain: ALGQFSAGGCTFDDGPGACDYHQDLYDDFEWVHVSAQEPHYLPPEMPQGSYMVVDSSNHDPGEKARLQLPTMKENDTHCIDFSYLLYSQKGLNPGTLNILVRVNKGPLANPIWNVTGFTGRDWLRAELAVSTFWPNEYQVIFEAEVSGGRSGYIAIDDIQVLSYPCDKSPHFLRLGDVEVNAGQNATFQCIATGRDAVHNKLWLQRRNGEDIPVAQTKNINHRRFAASFRLQEVTKTDQDLYRCVTQSERGSGVSNFAQLIVREPPRPIAPPQLLGVGPTYLLIQLNANSIIGDGPIILKEVEYRMTSGSWTETHAVNAPTYKLWHLDPDTEYEIRVLLTRPGEGGTGLPGPPLITRTKCAEPMRTPKTLKIAEIQARRIAVDWESLGYNITRCHTFNVTICYHYFRGHNESRADCLDMDPKAPQHVVNHLPPYTNVSLKMILTNPEGRKESEETIIQTDEDVPGPVPVKSLQGTSFENKIFLNWKEPLEPNGIITQYEVSYSSIRSFDPAVPVAGPPQTVSNLWNSTHHVFMHLHPGTTYQFFIRASTVKGFGPATAINVTTNISAPSLPDYEGVDASLNETATTITVLLRPAQAKGAPISAYQIVVEQLHPHRTKREAGAMECYQVPVTYQNALSGGAPYYFAAELPPGNLPEPAPFTVGDNRTYKGFWNPPLAPRKGYNIYFQAMSSVEKETKTQCVRIATKAAATEEPEVIPDPAKQTDRVVKIAGISAGILVFILLLLVVIVIVKKSKLAKKRKDAMGNTRQEMTHMVNAMDRSYADQSTLHAEDPLSLTFMDQHNFSPRLPNDPLVPTAVLDENHSATAESSRLLDVPRYLCEGTESPYQTGQLHPAIRVADLLQHINLMKTSDSYGFKEEYESFFEGQSASWDVAKKDQNRAKNRYGNIIAYDHSRVILQPVEDDPSSDYINANYIDIWLYRDGYQRPSHYIATQGPVHETVYDFWRMVWQEQSACIVMVTNLVEVGRVKCYKYWPDDTEVYGDFKVTCVEMEPLAEYVVRTFTLERRGYNEIREVKQFHFTGWPDHGVPYHATGLLSFIR
# B3: 110 kDa N-terminal cleavage product of murine RPTPκ (receptor)
# chain: ALGQFSAGGCTFDDGPGACDYHQDLYDDFEWVHVSAQEPHYLPPEMPQGSYMVVDSSNHDPGEKARLQLPTMKENDTHCIDFSYLLYSQKGLNPGTLNILVRVNKGPLANPIWNVTGFTGRDWLRAELAVSTFWPNEYQVIFEAEVSGGRSGYIAIDDIQVLSYPCDKSPHFLRLGDVEVNAGQNATFQCIATGRDAVHNKLWLQRRNGEDIPVAQTKNINHRRFAASFRLQEVTKTDQDLYRCVTQSERGSGVSNFAQLIVREPPRPIAPPQLLGVGPTYLLIQLNANSIIGDGPIILKEVEYRMTSGSWTETHAVNAPTYKLWHLDPDTEYEIRVLLTRPGEGGTGLPGPPLITRTKCAEPMRTPKTLKIAEIQARRIAVDWESLGYNITRCHTFNVTICYHYFRGHNESRADCLDMDPKAPQHVVNHLPPYTNVSLKMILTNPEGRKESEETIIQTDEDVPGPVPVKSLQGTSFENKIFLNWKEPLEPNGIITQYEVSYSSIRSFDPAVPVAGPPQTVSNLWNSTHHVFMHLHPGTTYQFFIRASTVKGFGPATAINVTTNISAPSLPDYEGVDASLNETATTITVLLRPAQAKGAPISAYQIVVEQLHPHRTKR
# Experiments:
# [1] = target: T1, 97 kDa β subunit of human RPTPκ (MCP7) (human); assay: co-immunoprecipitation of the 97 kDa band with Ab 116 from MCP7-transfected 293 cells
# [2] = target: truncated, catalytically inactive deletion mutant of murine RPTPκ lacking most of the intracellular (PTPase) domain (mouse) (UniProt P35822); assay: aggregation of transiently transfected S2 cells, Coulter counting
# [3] = target: T2, 100 kDa C-terminal cleavage product of murine RPTPκ (mouse); assay: co-immunoprecipitation: precipitated with antiserum 116, blotted with antiserum 122
binder,measurement,setting,value
B1,binding,[1],binds
B2,binding,[2],binds
B3,binding,[3],binds
